Some results were stated once for a whole list of compounds, not compound by compound. At least one compound was matched to its structure with a doubt left.
How the values were obtained:
[1] = test system: U-87 MG cells, HEK293T cells, Jurkat cells, THP-1 cells, HCT116 cells, SW480 cells and SW620 cells; conditions: compound 0 to 40 μM, 24 hours; for cytotoxicity: various cells, amount of LDH in the culture supernatant
[2] = test system: U-87 MG cells, HEK293T cells, Jurkat cells, THP-1 cells, HCT116 cells, SW480 cells and SW620 cells; assay: Evaluation of suppression of secretion of extracellular vesicles (Tim4-CD63/CD9/CD81 ELISA, NanoSIGHT; Test Examples 1, 3 and 4); format: cell-based, human; conditions: various cells, compound 0 to 20 μM, cultured 24 hours, culture supernatant

Q: What does the source list for `COc1ccc(CN2C(=O)C(=O)c3cc(OC(F)(F)F)ccc32)cc1` [Example 16]?
A: amount of LDH in the culture supernatant [1]: no significant increase; cytotoxicity [1]: low cytotoxicity; secreted amount of CD9, CD63 and/or CD81-positive extracellular vesicles [2]: could reduce the secreted amount

Q: How did the “amount of LDH in the culture supernatant” value [1] turn out when `C1=Cc2nc1cc1nc(c(-c3ccccc3)c3ccc(cc4ccc([nH]4)c2-c2ccccc2)[nH]3)C=C1` [Example 1] was run?
A: The value was “no significant increase”.

Q: What about the cytotoxicity [1] of the same molecule?
A: The cytotoxicity was “low cytotoxicity”.

Q: And the “secreted amount of CD9, CD63 and/or CD81-positive extracellular vesicles” value [2]?
A: The value was “could reduce the secreted amount”.

Source: patent US20220071956A1, “COMPOSITION FOR SUPRESSING SECRETION OF EXTRACELLULAR VESICLES” (NISSAN CHEMICAL CORPORATION, priority 2018, published 2022)
